The test system of data set [1] is CD45+ leukocytes (macrophages, monocytes, lymphocytes, granulocytes). Description: uptake of iron binding protein by CD45+ leukocyte cells. The data set is classed as cell-based. Particulars: cells incubated 1-4 hrs in protein solution (ferritin 0.2 mg/ml; haemoglobin, transferrin 0.1 mg/ml), standard culture conditions.
Data set [2] has as its system cancer cells: mouse mammary cancer, colon cancer, canine mammary cancer, human breast, pancreatic, and bladder cancer. Description: transfer of carrier protein from loaded leukocytes to cancer cells. The format is cell-based.

Regarding “transferrins: human holo-transferrin (SEQ ID NO: 28) purified from serum of healthy donor”, the “uptake of the protein by cells” value in data set [1] is on record as “very easily uptake”. For the same substance, the “transport of carrier protein to cancer cells” value in data set [2] (from loaded granulocytes), in data set [2] (from loaded lymphocytes), in data set [2] (from loaded macrophages) and in data set [2] (from loaded monocytes) was “very easily transport” in each case.

In the case of “haemoglobins: human haemoglobin prepared from fresh red cells (SEQ ID NO: 18 or 22)”, the “uptake of the protein by cells” value in data set [1] is given as “very easily uptake”. In addition, the “transport of carrier protein to cancer cells” value in data set [2] (from loaded granulocytes), in data set [2] (from loaded lymphocytes), in data set [2] (from loaded macrophages) and in data set [2] (from loaded monocytes) was “very easily transport” each time.

The values above are taken from patent publication US11464879B2, “Cellular targeted active ingredient delivery system” (CELLIS SP. Z O.O. [LTD.], priority 2015, dated 2022).
